Measurements published in PubChem BioAssay AID2685 (National Center for Advancing Translational Sciences (NCATS), 2010).
The other results are listed elsewhere or left out. The main result of the screen is listed elsewhere. These columns were measured beside it and carry no call. The list favours compounds with an active or inconclusive main result. The note in brackets gives the kind of curve behind each potency; many fits are weak.

Test: qHTS Assay for Lipid Storage Modulators in Drosophila S3 Cells;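 for cell number change: cells counted by Cell Tracker Red CMTPX staining in the red channel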
Settings: BODIPY lipid droplet fluorescence, 18-24 h; for cell number change: measured here: cell count max response, cells fed with added oleic acid
Method in brief: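 Drosophila S3 cells got compounds at several concentrations plus oleic acid (400 uM solution). Laser-scanning cytometry with 488 nm excitation read lipid droplets at 500-530 nm and cells at 575-640 nm. Percent activity was relative to 20 uM Triacsin C.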

[1] = measured here: lipid fluorescence (Fed channel) AC50, cells fed with added oleic acid
[2] = measured here: cell number channel AC50, cells fed with added oleic acid

Cc1ccccc1C(=O)c1c[nH]c(C(=O)NCCc2ccccn2)c1
cell number change: 42.6%

O=C(Cn1cnc2cc([N+](=O)[O-])ccc2c1=O)NC1CCS(=O)(=O)C1 (centres undefined)
cell number change: -7.06% | AC50 [1]: 0.651 µM [falling, partial curve, poor fit]

Cc1c(C(=O)O)sc(S(=O)(=O)N2CCN(C(=O)Cc3ccc(F)cc3)CC2)c1C(=O)O
cell number change: -12.1% | AC50 [1]: 6.51 µM [rising, single point]

Cc1cc(S(=O)(=O)N2CCN(c3ccccc3O)CC2)c(C)s1
cell number change: 23.8% | AC50 [2]: 0.517 µM [rising, single point] | AC50 [1]: 0.259 µM [falling, full curve]

O=C(NCCCN1CCCC1)c1ccc2c(c1)N(Cc1ccccc1F)C(=O)c1ccccc1S2=O (centres undefined)
cell number change: 5.5%

CCOc1cc(C2C(C(=O)c3ccco3)=C(O)C(=O)N2CCc2ccccc2)ccc1O (centres undefined)
cell number change: 16.1%

COc1ccc(C(=O)NCC(=O)OCC(=O)N2N=C(c3ccc(Cl)cc3)CC2c2ccco2)cc1OC (centres undefined)
AC50 [2]: 0.82 µM [rising, partial curve, poor fit]

O=C1C2C3C=CC(C3)C2C(=O)N1CNc1ccccc1 (centres undefined)
cell number change: -4.14% | AC50 [1]: 0.116 µM [falling, full curve, poor fit]

CCOc1ccc(/C=N/NC(=O)C(OC)c2ccccc2)cc1 (centres undefined)
cell number change: -4.19% | AC50 [1]: 1.16 µM [rising, single point]

Cc1nc(C)c(CC(=O)N/N=C/c2ccc(O)cc2)c(=O)[nH]1
cell number change: -1.18% | AC50 [1]: 29.1 µM [falling, single point]

Cc1ccc2[nH]cc(/C=C/c3cc[n+](C)cc3)c2c1
cell number change: 16.5% | AC50 [1]: 18.4 µM [falling, single point]

CC(OC(=O)c1cccc(O)c1)C(=O)N(C)Cc1ccccc1 (centres undefined)
cell number change: 0.602% | AC50 [1]: 23.1 µM [falling, single point]

O=C(Nc1ccc2c(c1)OCCO2)c1ccoc1
cell number change: 20.8% | AC50 [2]: 0.517 µM [rising, full curve, poor fit]

CS(=O)(=O)Nc1cccc(-c2cnc3ccccc3n2)c1
cell number change: -10% | AC50 [1]: 1.03 µM [rising, partial curve]

Cn1nc(C(F)(F)F)c(-c2ccc(F)cc2)c1NC(=O)c1cccnc1
cell number change: -8.97% | AC50 [1]: 3.26 µM [rising, partial curve, poor fit]

O=C(CCC1CCCCC1)NC1=NCCS1
cell number change: -1.96% | AC50 [1]: 16.4 µM [rising, single point]

Cc1ccc(C(=O)N/C(=C\c2ccc(Br)cc2)c2nc(=S)[nH][nH]2)cc1
cell number change: -35.3% | AC50 [2]: 14.6 µM [falling, single point] | AC50 [1]: 29.1 µM [falling, single point]

COc1cccc(/C=N/n2c(COc3ccccc3)n[nH]c2=S)c1
cell number change: -41.9% | AC50 [2]: 29.1 µM [falling, single point]

O=c1c2ccccc2ncn1CCOc1ccccc1[N+](=O)[O-]
cell number change: -22.9% | AC50 [1]: 0.92 µM [falling, full curve]

COC(=O)c1cccc(NC(=O)c2cccc(OC)c2)c1
cell number change: -2.33% | AC50 [1]: 0.461 µM [rising, full curve, poor fit]

COc1cccc(OCC(=O)Nc2c3c(nn2-c2ccccc2)CS(=O)(=O)C3)c1
cell number change: -41.1% | AC50 [2]: 29.1 µM [falling, single point] | AC50 [1]: 29.1 µM [rising, single point]

CC1CCC(NC(=O)CSc2nnc(-c3cccnc3)o2)CC1 (centres undefined)
cell number change: 28.4% | AC50 [2]: 0.00461 µM [rising, full curve, poor fit]

Cc1cccc(CCN(Cc2cc3cccc(C)c3[nH]c2=O)C(=O)N2CCOCC2)c1
cell number change: 2.91% | AC50 [1]: 0.00461 µM [rising, full curve, poor fit]

NC(=S)N/N=C1\CC(n2nnnc2-c2ccccc2)C2COC1O2 (centres undefined)
cell number change: -13.5%

CC(Oc1ccc(Cl)cc1)c1ccn[nH]1 (centres undefined)
cell number change: 36.2% | AC50 [2]: 3.26 µM [falling, single point] | AC50 [1]: 6.51 µM [falling, single point]

O=C1c2ccccc2C(=O)N1CCc1nc2ccccc2c(=O)n1CCCn1ccnc1
cell number change: 0.292%

CCOC(=O)c1cc2sccc2n1CC(=O)Nc1ccc(OC)c(OC)c1
cell number change: -15.4%

O=C(COC(=O)/C=C/c1cccc(C(F)(F)F)c1)Nc1ccc(Cl)cn1
cell number change: -13.9% | AC50 [1]: 1.84 µM [rising, partial curve]

COc1ccccc1CN1CCNC(=O)C1CC(=O)O (centres undefined)
cell number change: 24.7%

CCSC1=N/C(=C\c2cccc(F)c2)C(=O)S1
cell number change: -12.6%

CC(=C/c1ccccc1)/C=N/NC(=O)CSc1nc(C)cc(C)n1
cell number change: 50.2% | AC50 [2]: 0.184 µM [rising, full curve] | AC50 [1]: 0.184 µM [rising, full curve]

N#CCc1nc2c3c4c(sc3ncn2n1)CCCC4
cell number change: -13.5% | AC50 [2]: 1.84 µM [rising, partial curve, poor fit] | AC50 [1]: 1.84 µM [rising, partial curve]

CC(=O)c1ccc(OCC(O)CN2C(C)CCCC2C)cc1 (centres undefined)
cell number change: 5.7% | AC50 [1]: 2.91 µM [falling, single point]

COc1ccc(/C=C(/NC(=O)c2ccco2)C(=O)Nc2cccc(C(=O)O)c2)cc1
cell number change: 8.12% | AC50 [1]: 29.1 µM [falling, single point]

COc1ccc(S(=O)(=O)Nc2ccccc2C(=O)N2CCOCC2)cc1OC
cell number change: -1.32%

O=C(NCc1cccs1)c1ccc(S(=O)(=O)N2CCOCC2)cc1
AC50 [1]: 0.231 µM [falling, full curve, poor fit]

CCCC(=O)Nc1ccc(S(=O)(=O)Nc2cc(OC)ncn2)cc1
cell number change: -3.31% | AC50 [1]: 29.1 µM [rising, single point]

COC(=O)c1c(NC(=O)/C=C/c2ccco2)sc2c1CCC2
cell number change: -4.08% | AC50 [1]: 0.231 µM [rising, full curve, poor fit]

CC1CN(c2ncnc3c2oc2ccccc23)CC(C)O1 (centres undefined)
cell number change: -9.2%

CC1CC(C)CN(C(=O)COC(=O)c2cccc([N+](=O)[O-])c2)C1 (centres undefined)
cell number change: 57.5%

Cc1nnc(SCC(=O)Nc2ccc3c(c2)OCCO3)n1CC1CCCO1 (centres undefined)
cell number change: 2.02% | AC50 [1]: 0.13 µM [falling, full curve, poor fit]

COc1ccc(-c2csc(NC(=O)CSCc3c(C)noc3C)n2)cc1OC
cell number change: -15.1% | AC50 [1]: 3.66 µM [falling, single point]

O=C(OCC(=O)N1CCOCC1)c1cc2ccccc2oc1=O
cell number change: 13.4% | AC50 [1]: 0.00461 µM [rising, full curve, poor fit]

Cc1ccc2c(c1)N(CCC(=O)NC(C)C)C(=O)CO2
cell number change: 29.7% | AC50 [1]: 6.51 µM [rising, single point]

CCOC(=O)c1cc2c(=O)n3ccccc3nc2n(CCCOC)c1=NC(=O)C(C)(C)C
cell number change: -20.6% | AC50 [1]: 18.4 µM [falling, partial curve]

COc1ccc(-n2ncc(C(C)NS(=O)(=O)c3ccc(C)s3)c2C)cc1 (centres undefined)
cell number change: 9.76% | AC50 [1]: 2.31 µM [falling, partial curve]

NS(=O)(=O)c1ccc(CCNC(=O)CNC(=O)c2ccc(F)cc2)cc1
cell number change: 3.36%

CCOc1ccc(NC(=O)c2ccc3c(c2)C(=O)N(Cc2ccncc2)C3=O)cc1
cell number change: 4.82%

CCOC(=O)/C=C1\CN(CCC(C)C)S(=O)(=O)c2ccccc21
cell number change: 4.85%

Oc1c(Cl)cc(CN2CCCCC2)c2cccnc12
cell number change: -12.4% | AC50 [1]: 32.6 µM [falling, single point]

O=C(NCC1CCCO1)c1c(O)c2cccc3c2n(c1=O)CC3 (centres undefined)
cell number change: 37.4% | AC50 [2]: 6.51 µM [rising, full curve, poor fit] | AC50 [1]: 2.31 µM [rising, full curve]

COC(=O)c1ccc(NC(=O)Cn2c([N+](=O)[O-])cnc2C)cc1
cell number change: -8.07% | AC50 [1]: 0.0517 µM [rising, partial curve, poor fit]

Cc1ccc(-c2nnn(CC(=O)N(c3ccccc3)C(C(=O)NCC3CCCO3)c3ccc(F)cc3)n2)o1 (centres undefined)
cell number change: 16% | AC50 [1]: 0.13 µM [rising, full curve, poor fit]

COc1cccc(/C=N/NC(=O)c2cnccn2)c1
cell number change: 101% | AC50 [2]: 29.1 µM [rising, single point]

Cc1csc(NC(=O)Cn2nc(C)c([N+](=O)[O-])c2C)n1
cell number change: 16.1% | AC50 [1]: 2.31 µM [rising, full curve, poor fit]

CC(C)(C)c1ccc(-n2ncc3c2CCCC3NC(=O)CCN2CCCCC2=O)cc1 (centres undefined)
cell number change: -33.7% | AC50 [1]: 5.17 µM [falling, partial curve]

CN1C(=O)c2oc3ccccc3c(=O)c2C1c1ccccn1 (centres undefined)
AC50 [1]: 0.651 µM [falling, full curve, poor fit]

S=c1[nH]nc(-c2ccc(Br)o2)n1Cc1ccccc1
cell number change: 12.4% | AC50 [1]: 2.31 µM [falling, partial curve, poor fit]

COc1ccc(-c2cnc(OC(C)(C)C)nc2OC(C)(C)C)cc1OC
cell number change: -36.9% | AC50 [2]: 2.06 µM [rising, partial curve]

Cc1ccoc1C(=O)NCCNC(=O)c1occc1C
cell number change: 1.2%

COc1ccc(CNC(=O)C(c2ccco2)N(C(=O)c2ccccn2)c2ccccc2)cc1 (centres undefined)
cell number change: 12.5% | AC50 [1]: 0.731 µM [falling, single point]

O=C(NC1CC1)C1CCN(c2ncccn2)CC1
cell number change: 28.2%

O=C(c1ccccc1Br)N1CCn2c1nc1ccccc12
cell number change: 16.7% | AC50 [2]: 0.092 µM [rising, full curve, poor fit]

COc1ccc(C2c3ccc4ccccc4c3Oc3ncn(CCCO)c(=N)c32)cc1 (centres undefined)
cell number change: -22.3% | AC50 [1]: 29.1 µM [falling, single point]

Cn1cc([N+](=O)[O-])c(C(=O)NNC(=O)c2ccc([N+](=O)[O-])cc2Cl)n1
cell number change: -35.2% | AC50 [2]: 2.91 µM [falling, partial curve] | AC50 [1]: 0.58 µM [falling, partial curve]
